The list shows a part of the results.
Key:
Assay in all cases: glycan array binding signal (z-score within array); higher = stronger binding
Conditions in all cases: glycan notation: IUPAC condensed, linker removed
[1] = target: Fuc(a1-2)Gal(b1-4)[Fuc(a1-3)]GlcNAc
Summary of the method: (§1)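 The binding signal is a Z-score computed within each array and averaged over linkers. Arrays of the same protein sequence at different concentrations or buffers were also averaged together. Data originate from 3228 arrays in the Consortium for Functional Glycomics database, kept only where the protein sequence was available.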

[2] = target: Fuc(a1-2)Gal(b1-4)[Fuc(a1-3)]GlcNAc(b1-2)Man(a1-3)[Fuc(a1-2)Gal(b1-4)[Fuc(a1-3)]GlcNAc(b1-2)Man(a1-6)]Man(b1-4)GlcNAc(b1-4)[Fuc(a1-6)]GlcNAc
Summary of the method: as §1

[3] = target: Fuc(a1-2)Gal(b1-4)[Fuc(a1-3)]GlcNAc(b1-2)[Fuc(a1-2)Gal(b1-4)[Fuc(a1-3)]GlcNAc(b1-4)]Man(a1-3)[Fuc(a1-2)Gal(b1-4)[Fuc(a1-3)]GlcNAc(b1-2)Man(a1-6)]Man(b1-4)GlcNAc(b1-4)GlcNAc
Summary of the method: as §1

[4] = target: Fuc(a1-2)Gal(b1-4)[Fuc(a1-3)]GlcNAc(b1-3)Gal(b1-4)[Fuc(a1-3)]GlcNAc
Summary of the method: as §1

[5] = target: Fuc(a1-2)Gal(b1-4)[Fuc(a1-3)]GlcNAc(b1-3)Gal(b1-4)[Fuc(a1-3)]GlcNAc(b1-3)Gal(b1-4)[Fuc(a1-3)]GlcNAc
Summary of the method: as §1

[6] = target: Fuc(a1-2)Gal(b1-4)[Fuc(a1-3)]GlcNAc(b1-3)GalNAc
Summary of the method: as §1

[7] = target: Fuc(a1-2)Gal(b1-4)[Fuc(a1-3)]GlcNAc(b1-3)[Neu5Ac(a2-6)Gal(b1-4)GlcNAc(b1-6)]Gal(b1-4)Glc
Summary of the method: as §1

[8] = target: Fuc(a1-2)Gal3S(b1-4)GlcNAc
Summary of the method: as §1

[9] = target: Fuc(a1-2)Gal6S(b1-3)GlcNAc
Summary of the method: as §1

[10] = target: Fuc(a1-2)Gal6S(b1-3)GlcNAc6S
Summary of the method: as §1

[11] = target: Fuc(a1-2)Gal6S(b1-4)Glc
Summary of the method: as §1

[12] = target: Fuc(a1-2)Gal6S(b1-4)Glc6S
Summary of the method: as §1

[13] = target: Fuc(a1-2)[Gal(a1-3)]Gal
Summary of the method: as §1

[14] = target: Fuc(a1-2)[Gal(a1-3)]Gal(b1-3)GalNAc
Summary of the method: as §1

[15] = target: Fuc(a1-2)[Gal(a1-3)]Gal(b1-3)GalNAc(b1-3)Gal(a1-4)Gal(b1-4)Glc
Summary of the method: as §1

[16] = target: Fuc(a1-2)[Gal(a1-3)]Gal(b1-3)GlcNAc
Summary of the method: as §1

[17] = target: Fuc(a1-2)[Gal(a1-3)]Gal(b1-3)GlcNAc(b1-2)Man(a1-3)[Fuc(a1-2)[Gal(a1-3)]Gal(b1-3)GlcNAc(b1-2)Man(a1-6)]Man(b1-4)GlcNAc(b1-4)GlcNAc
Summary of the method: as §1

[18] = target: Fuc(a1-2)[Gal(a1-3)]Gal(b1-3)GlcNAc(b1-2)Man(a1-3)[Fuc(a1-2)[Gal(a1-3)]Gal(b1-3)GlcNAc(b1-2)Man(a1-6)]Man(b1-4)GlcNAc(b1-4)[Fuc(a1-6)]GlcNAc
Summary of the method: as §1

[19] = target: Fuc(a1-2)[Gal(a1-3)]Gal(b1-3)GlcNAc(b1-3)GalNAc
Summary of the method: as §1

[20] = target: Fuc(a1-2)[Gal(a1-3)]Gal(b1-3)GlcNAc(b1-6)GalNAc
Summary of the method: as §1

[21] = target: Fuc(a1-2)[Gal(a1-3)]Gal(b1-4)Glc
Summary of the method: as §1

[22] = target: Fuc(a1-2)[Gal(a1-3)]Gal(b1-4)GlcNAc
Summary of the method: as §1

[23] = target: Fuc(a1-2)[Gal(a1-3)]Gal(b1-4)GlcNAc(b1-2)Man
Summary of the method: as §1

[24] = target: Fuc(a1-2)[Gal(a1-3)]Gal(b1-4)GlcNAc(b1-2)Man(a1-3)[Fuc(a1-2)[Gal(a1-3)]Gal(b1-4)GlcNAc(b1-2)Man(a1-6)]Man(b1-4)GlcNAc(b1-4)GlcNAc
Summary of the method: as §1

[25] = target: Fuc(a1-2)[Gal(a1-3)]Gal(b1-4)GlcNAc(b1-2)Man(a1-3)[Fuc(a1-2)[Gal(a1-3)]Gal(b1-4)GlcNAc(b1-2)Man(a1-6)]Man(b1-4)GlcNAc(b1-4)[Fuc(a1-6)]GlcNAc
Summary of the method: as §1

[26] = target: Fuc(a1-2)[Gal(a1-3)]Gal(b1-4)GlcNAc(b1-3)GalNAc
Summary of the method: as §1

[27] = target: Fuc(a1-2)[Gal(a1-3)]Gal(b1-4)GlcNAc(b1-3)[Fuc(a1-2)[Gal(a1-3)]Gal(b1-4)GlcNAc(b1-6)]GalNAc
Summary of the method: as §1

[28] = target: Fuc(a1-2)[Gal(a1-3)]Gal(b1-4)GlcNAc(b1-6)GalNAc
Summary of the method: as §1

[29] = target: Fuc(a1-2)[Gal(a1-3)]Gal(b1-4)[Fuc(a1-3)]Glc
Summary of the method: as §1

[30] = target: Fuc(a1-2)[Gal(a1-3)]Gal(b1-4)[Fuc(a1-3)]GlcNAc
Summary of the method: as §1

[31] = target: Fuc(a1-2)[Gal(a1-3)]Gal(b1-4)[Fuc(a1-3)]GlcNAc(b1-3)GalNAc
Summary of the method: as §1

[32] = target: Fuc(a1-2)[Gal(a1-4)]Gal(b1-4)GlcNAc
Summary of the method: as §1

[33] = target: Fuc(a1-2)[GalNAc(a1-3)]Gal
Summary of the method: as §1

[34] = target: Fuc(a1-2)[GalNAc(a1-3)]Gal(b1-3)GalNAc(a1-3)[Fuc(a1-2)]Gal(b1-4)GlcNAc
Summary of the method: as §1

[35] = target: Fuc(a1-2)[GalNAc(a1-3)]Gal(b1-3)GalNAc(b1-3)Gal(a1-4)Gal(b1-4)Glc
Summary of the method: as §1

[36] = target: Fuc(a1-2)[GalNAc(a1-3)]Gal(b1-3)GlcNAc
Summary of the method: as §1

[37] = target: Fuc(a1-2)[GalNAc(a1-3)]Gal(b1-3)GlcNAc(b1-2)Man(a1-3)[Fuc(a1-2)[GalNAc(a1-3)]Gal(b1-3)GlcNAc(b1-2)Man(a1-6)]Man(b1-4)GlcNAc(b1-4)GlcNAc
Summary of the method: as §1

[38] = target: Fuc(a1-2)[GalNAc(a1-3)]Gal(b1-3)GlcNAc(b1-2)Man(a1-3)[Fuc(a1-2)[GalNAc(a1-3)]Gal(b1-3)GlcNAc(b1-2)Man(a1-6)]Man(b1-4)GlcNAc(b1-4)[Fuc(a1-6)]GlcNAc
Summary of the method: as §1

B1: AT3G09350(27) (Arabidopsis thaliana), Q84J81 (protein)
chain: MAKDGPNWDGLLKWSLSHADGTRPTRQLSEEDRKWFMEAMQSQTVDVVKRMKEITLVMQTPEQVLVEHGVTPEDIQDLLDELQEHVESIDMANDLHSIGGLVPLLSFLKNSHANIRAKAADVVSTIVQNNPRSQELVMETNALESLLSNFTSDTDIHARTQALGAISSLIRHNKPGVTAFKLANGYAGLRDALASDSVRFQRKALNLLQYLLQEDDSDRSIATGLGFPRVMMHLASSDDAEIREAALRGLLELSREKNDGSSSIDKSDEKLRQLLEERIKGITLMSQEDLETVKEERQLVDLLWSICYNEPSSLREKGLVVLPGEDALPPDVASKLFEPPLRASAANRNATEKKDEPMKLLGP
B1 was tested, and the “glycan array binding signal (z-score)” value [1] was -0.03, the “glycan array binding signal (z-score)” value [2] was -0.237 and the “glycan array binding signal (z-score)” value [3] was -0.537. The “glycan array binding signal (z-score)” value [4] was -0.529, the “glycan array binding signal (z-score)” value [5] was 0.234 and the “glycan array binding signal (z-score)” value [6] was -0.134. The “glycan array binding signal (z-score)” value [7] was -0.772, the “glycan array binding signal (z-score)” value [8] was -0.997 and the “glycan array binding signal (z-score)” value [9] was -0.161. The “glycan array binding signal (z-score)” value [10] was 0.172, the “glycan array binding signal (z-score)” value [11] was -0.518 and the “glycan array binding signal (z-score)” value [12] was -0.315. The “glycan array binding signal (z-score)” value [13] was 1.22, the “glycan array binding signal (z-score)” value [14] was -0.403 and the “glycan array binding signal (z-score)” value [15] was -0.597. For the same binder, the “glycan array binding signal (z-score)” value [16] was -0.327, the “glycan array binding signal (z-score)” value [17] was -0.69 and the “glycan array binding signal (z-score)” value [18] was 0.226. The “glycan array binding signal (z-score)” value [19] was -0.33, the “glycan array binding signal (z-score)” value [20] was -0.699 and the “glycan array binding signal (z-score)” value [21] was 2.16. The “glycan array binding signal (z-score)” value [22] was 0.614, the “glycan array binding signal (z-score)” value [23] was -0.155 and the “glycan array binding signal (z-score)” value [24] was -0.513. The “glycan array binding signal (z-score)” value [25] was -0.574, the “glycan array binding signal (z-score)” value [26] was 0.027 and the “glycan array binding signal (z-score)” value [27] was 0.43. The “glycan array binding signal (z-score)” value [28] was -0.12, the “glycan array binding signal (z-score)” value [29] was -0.726 and the “glycan array binding signal (z-score)” value [30] was -0.094. The “glycan array binding signal (z-score)” value [31] was -0.362, the “glycan array binding signal (z-score)” value [32] was 1.74 and the “glycan array binding signal (z-score)” value [33] was -0.506. For the same binder, the “glycan array binding signal (z-score)” value [34] was -0.375, the “glycan array binding signal (z-score)” value [35] was 0.388 and the “glycan array binding signal (z-score)” value [36] was -0.419. The “glycan array binding signal (z-score)” value [37] was -0.446 and the “glycan array binding signal (z-score)” value [38] was -0.677.

Reference: the supplement of paper PMC8728848
